Data reported in doi:10.1101/2021.06.22.449524.
Read-outs that look alike come from different tables or passages of the source. These are yes or no findings as the source states them, for the method shown. In cells and extracts the contact can be indirect. Some binding calls cover weakened binding; strength is not graded here. For some assays here: Where a sequence is shown, tags or fusion partners need not be part of it. Values belong to the molecule of their own block, whether it stands above or below them.

Amino acid sequences for entries named in this document (tags omitted).
UniProt O09106: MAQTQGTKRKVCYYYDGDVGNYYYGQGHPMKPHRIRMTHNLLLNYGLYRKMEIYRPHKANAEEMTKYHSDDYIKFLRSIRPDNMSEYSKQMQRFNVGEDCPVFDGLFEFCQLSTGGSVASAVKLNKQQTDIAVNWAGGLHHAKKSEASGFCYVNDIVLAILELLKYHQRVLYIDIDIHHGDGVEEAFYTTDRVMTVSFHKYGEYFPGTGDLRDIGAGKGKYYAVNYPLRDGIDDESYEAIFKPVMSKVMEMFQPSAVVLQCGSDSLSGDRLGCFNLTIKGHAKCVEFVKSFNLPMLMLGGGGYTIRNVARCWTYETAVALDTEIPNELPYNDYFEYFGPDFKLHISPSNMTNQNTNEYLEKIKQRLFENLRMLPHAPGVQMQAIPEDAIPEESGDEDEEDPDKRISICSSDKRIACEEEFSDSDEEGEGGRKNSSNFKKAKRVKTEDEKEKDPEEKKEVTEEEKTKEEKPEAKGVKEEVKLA
UniProt P70288: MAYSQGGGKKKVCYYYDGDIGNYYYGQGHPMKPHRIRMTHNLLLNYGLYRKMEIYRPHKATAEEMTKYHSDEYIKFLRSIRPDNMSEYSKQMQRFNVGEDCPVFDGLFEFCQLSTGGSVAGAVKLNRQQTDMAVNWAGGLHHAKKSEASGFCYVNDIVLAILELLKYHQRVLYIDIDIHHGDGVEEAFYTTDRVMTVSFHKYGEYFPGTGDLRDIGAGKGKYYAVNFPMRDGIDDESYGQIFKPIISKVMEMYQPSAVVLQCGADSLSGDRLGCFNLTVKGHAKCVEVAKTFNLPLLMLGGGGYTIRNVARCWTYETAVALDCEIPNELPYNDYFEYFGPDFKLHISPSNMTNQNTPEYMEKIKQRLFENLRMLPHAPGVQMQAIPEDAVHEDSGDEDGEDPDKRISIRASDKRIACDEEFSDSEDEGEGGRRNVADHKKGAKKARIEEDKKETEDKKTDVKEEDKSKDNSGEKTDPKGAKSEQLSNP

What was measured:
Experiment in all cases: co-IP
[1] = target: T1, FLAG-tagged ZFP541 (mouse) (UniProt Q0GGX2)
T1 sequence: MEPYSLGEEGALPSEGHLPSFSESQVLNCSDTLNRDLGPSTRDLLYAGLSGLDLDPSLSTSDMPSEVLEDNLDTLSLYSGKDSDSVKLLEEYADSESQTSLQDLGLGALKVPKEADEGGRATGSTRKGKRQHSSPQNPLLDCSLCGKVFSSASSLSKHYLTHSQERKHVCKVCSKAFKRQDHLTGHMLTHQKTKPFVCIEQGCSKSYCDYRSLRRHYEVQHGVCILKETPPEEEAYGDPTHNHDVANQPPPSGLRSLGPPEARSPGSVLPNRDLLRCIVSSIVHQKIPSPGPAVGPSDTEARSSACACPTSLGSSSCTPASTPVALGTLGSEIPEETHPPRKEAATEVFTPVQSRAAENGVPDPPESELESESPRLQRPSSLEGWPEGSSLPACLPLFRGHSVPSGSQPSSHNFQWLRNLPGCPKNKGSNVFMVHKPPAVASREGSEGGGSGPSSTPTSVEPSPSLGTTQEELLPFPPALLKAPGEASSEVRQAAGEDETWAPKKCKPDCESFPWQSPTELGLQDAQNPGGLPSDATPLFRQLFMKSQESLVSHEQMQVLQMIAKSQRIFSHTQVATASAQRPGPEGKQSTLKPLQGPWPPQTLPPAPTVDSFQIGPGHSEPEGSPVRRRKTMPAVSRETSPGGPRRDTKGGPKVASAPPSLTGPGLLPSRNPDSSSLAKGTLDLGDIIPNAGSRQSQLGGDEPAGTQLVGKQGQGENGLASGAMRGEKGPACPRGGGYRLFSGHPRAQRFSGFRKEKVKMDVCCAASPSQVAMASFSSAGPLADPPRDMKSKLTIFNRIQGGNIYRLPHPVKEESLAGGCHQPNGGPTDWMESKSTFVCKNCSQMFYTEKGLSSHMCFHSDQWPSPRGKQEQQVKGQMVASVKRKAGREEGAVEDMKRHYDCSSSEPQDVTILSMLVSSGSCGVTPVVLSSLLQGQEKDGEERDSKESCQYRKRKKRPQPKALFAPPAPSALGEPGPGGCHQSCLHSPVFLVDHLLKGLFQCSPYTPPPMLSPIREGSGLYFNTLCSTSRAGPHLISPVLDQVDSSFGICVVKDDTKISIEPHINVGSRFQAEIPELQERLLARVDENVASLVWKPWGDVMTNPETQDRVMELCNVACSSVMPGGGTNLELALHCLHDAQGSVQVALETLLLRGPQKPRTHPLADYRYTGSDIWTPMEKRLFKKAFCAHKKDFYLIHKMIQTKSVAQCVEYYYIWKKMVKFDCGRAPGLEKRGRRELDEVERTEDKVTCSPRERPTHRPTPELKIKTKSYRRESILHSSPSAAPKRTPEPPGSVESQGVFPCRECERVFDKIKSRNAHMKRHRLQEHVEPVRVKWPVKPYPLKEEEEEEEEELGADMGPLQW

[2] = target: T2, zinc finger protein 541 (ZFP541) (mouse (endogenous in testis)) (UniProt Q0GGX2)
T2 sequence: T1 sequence

[3] = target: T1, FLAG-tagged ZFP541 (mouse); remark: listed apart in the source
[4] = target: T2, zinc finger protein 541 (ZFP541) (mouse (endogenous in testis)); remark: listed apart in the source

binding [1]: binds
Molecule: MYC-tagged HDAC1 (from UniProt O09106 1-482)

binding [1]: binds
Molecule: MYC-tagged HDAC2 (from UniProt P70288 1-488)

binding [2]: binds
Molecule: histone deacetylase 1 (HDAC1) (from UniProt O09106 1-482)

binding [3]: binds
B1: MYC-tagged DNTTIP1 (protein, UniProt Q99LB0 1-328)
chain: MGATGDTEQPRGPGGAERGGLELGDAGAAGQPVLTNPWNIMIKHRQVQRRGRRSQMTTSFTDPAISMDLLRAVLQPSINEEIQGVFNKYMKFFQKAALNVRDNVGEEVDAEQLIQEACRSCLEQAKLLFSDGEKVIPRLAHELPGIKRGRQAEEESHRGSPIPKKRKGRPPGHVLSNDRAAAGMVWKQKSCEPIRREGPKWDPARLNESTTFVLGSRANKALGMGGTRGRIYIKHPHLFKYAADPQDKHWLAEQHHMRATGGKMAYLLIEEDIRDLAASDDYRGCLDLKLEELKSFVLPSWMVEKMRKYMETLRTENEHRAAEAPPQT

The next lines start with the molecule.

Molecule: histone deacetylase 2 (HDAC2) (from UniProt P70288 1-488)
binding [2]: binds

B2: deoxynucleotidyltransferase terminal-interacting protein 1 (DNTTIP1) (protein, UniProt Q99LB0 1-328)
chain: B1 chain
binding [4]: binds

B3: MYC-tagged KCTD19 (protein, UniProt Q562E2 1-927)
chain: MEEPGGLHESAEDLFHFNVGGWHFSVPRSKLAQFPDSLLWKEASALTSSENQRLFIDRDGSTFRHVHYYLYTSKLSFSSCAELNLLYEQALGLQLMPLLQTLDNLKEGRHHLRVRPADIPVAERASLNYWRTWKCISKPSDFPIKSPAFTGLHDKAPLGLMDTPLLDTEEEVHYCFLPLDLVAKYPSLVTEDNLLWLAETVALIECECSEFRFIVNFLRSHKILLPDNFSNIDVLEAEVEILEIPELTEAVRLYRMNMGGCSRTSCPPLSPGKGGRTASVESVKPLYLMALGLLVKYPDSALGQLRIESTLDGSRLYITGNGALFQHVRNWLGTCRLPLTETISEVYELCAFLDKRDITYEPMKVALKTHLEPRTLLPVDVLSEEWTAEVTIYSPQQIIKLYVGSHWYATTLQTLMKYPELLSNTQRVYWIAYGQTLLIHGDGQMFRHILNFLRLGKLFLPSEFKEWPLFCQEVEEYHIPALSEALAQCEAYKSWTQEKESENEEAFPIRKLHVVTEGTGPMAEFSRDAKETTACMPVDFQECSDRTPWNKAKGNLTRSSQMEEAEQYTRTIQVSLCRNAKRGGNPSTYSHCSGLCANPRHWGGHSESPPKKKCTTINLTQKPDAKDPPVTPMQKLISLVREWDMVNCKQWEFQPLPASRSSSVEEASLHVPSGSEAAPQPGTSAAWKAHSITSEKDAGPQTGPGAGVKDKGPEPTFKPYFPTKRAITLKDWGKQRPKDRESPAPEQPLPNANGTDNPGAILKVAHPPVVGNDGSCMFFEDSIIYTTQMDNIKHTSLTASPQLREVTFLSFSLSWEEMFYAQKCHRFLTDIILDSIRQKDPKAITAKVVSLAYRLWTLNISPKQFVVDLLAIAGFKDDRHTQERLYSWVELTLPFARKYGRCVDLLIQRGLSRSVSYSVLGKYLHEG
binding [3]: binds

B4: potassium channel tetramerization domain containing 19 (KCTD19) (protein, UniProt Q562E2 1-927)
chain: B3 chain
binding [4]: binds
